{"source": "the supplement of paper PMC11732987", "about": "“Enantioselective OTUD7B fragment discovery through chemoproteomics screening and high-throughput optimisation” (Communications Chemistry, 2025)", "note": "This is one part of the list. The data scatter; read single values as rough.", "data": [{"compound": "ClCC(=O)N[C@H]1CCCc2ccccc12", "assay": "log2 mean competition ratio of IA-DTB cysteine labelling (DMSO/compound) (log2 ratio); higher = stronger cysteine engagement by compound", "settings": "200 µM; treatment time: 4 h; cell line lysate: HEK293T", "description": "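IA-DTB competitive cysteine chemoproteomics in HEK293T RIPA lysate. Lysates were treated with compound 29 or 30 at 50 or 200 µM for 4 h, then IA-DTB (500 µM, 1 h), trypsin-digested, NeutrAvidin-enriched and analysed by diaPASEF. Competition ratio = intensity DMSO / intensity compound (n=4 treated, n=64 DMSO); binding: mean log2 CR ≥ 1 and p ≤ 0.05 plus QC filters. Target is the cysteine site.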", "values": [{"target": "NDUFV1 C125", "log2 mean competition ratio": 0.119}, {"target": "NCAPH C309 (UniProt Q15003)", "log2 mean competition ratio": 0.0684}, {"target": "NFXL1 C748 (UniProt Q6ZNB6)", "log2 mean competition ratio": 0.0917}, {"target": "NBAS C1634 (UniProt A2RRP1)", "log2 mean competition ratio": -0.17}, {"target": "NCAPD3 C631 (UniProt P42695)", "log2 mean competition ratio": -0.156}, {"target": "NFRKB C29 (UniProt Q6P4R8)", "log2 mean competition ratio": 0.371}, {"target": "NCAPD3 C361 (UniProt P42695)", "log2 mean competition ratio": -0.817}, {"target": "NEDD1 C314 (UniProt Q8NHV4)", "log2 mean competition ratio": -0.507}, {"target": "NCOA7 C487 (UniProt Q8NI08)", "log2 mean competition ratio": 0.0275}, {"target": "NOL8 C259 (UniProt Q76FK4)", "log2 mean competition ratio": 0.155}, {"target": "NEMP1 C434 (UniProt O14524)", "log2 mean competition ratio": 0.117}, {"target": "NCOA3 C197 (UniProt Q9Y6Q9)", "log2 mean competition ratio": -0.0749}, {"target": "NEDD1 C66 (UniProt Q8NHV4)", "log2 mean competition ratio": -0.0348}, {"target": "NKD2 C229", "log2 mean competition ratio": 0.688}, {"target": "NEK7 C253 (UniProt Q8TDX7)", "log2 mean competition ratio": 0.0451}, {"target": "NCKIPSD C376 (UniProt Q9NZQ3)", "log2 mean competition ratio": -0.239}, {"target": "NCAPG C966 (UniProt Q9BPX3)", "log2 mean competition ratio": -0.288}, {"target": "NCAPG2 C443 (UniProt Q86XI2)", "log2 mean competition ratio": 0.257}, {"target": "NIBAN2 C405 (UniProt Q96TA1)", "log2 mean competition ratio": 0.0761}, {"target": "NCAPH2 C230 (UniProt Q6IBW4)", "log2 mean competition ratio": 0.162}, {"target": "NCAPH C114 (UniProt Q15003)", "log2 mean competition ratio": -0.0924}, {"target": "NHSL1 C1554 (UniProt Q5SYE7)", "log2 mean competition ratio": -0.0453}, {"target": "NDUFB11 C141 (UniProt Q9NX14)", "log2 mean competition ratio": 0.0372}, {"target": "NCAPD2 C1249 (UniProt Q15021)", "log2 mean competition ratio": 0.106}, {"target": "NDOR1 C507 (UniProt Q9UHB4)", "log2 mean competition ratio": -0.54}, {"target": "NDUFAF7 C148 (UniProt Q7L592)", "log2 mean competition ratio": -0.146}, {"target": "NLN C153 (UniProt Q9BYT8)", "log2 mean competition ratio": 0.0841}, {"target": "NIT1 C203 (UniProt Q86X76)", "log2 mean competition ratio": 0.239}, {"target": "NIN C297 (UniProt Q8N4C6)", "log2 mean competition ratio": -0.0773}, {"target": "NFAT5 C566 (UniProt O94916)", "log2 mean competition ratio": 0.00326}, {"target": "NME3 C158", "log2 mean competition ratio": 0.0512}, {"target": "NEU1 C299 (UniProt Q99519)", "log2 mean competition ratio": 0.1}, {"target": "NCAPD3 C1389 (UniProt P42695)", "log2 mean competition ratio": -0.0689}, {"target": "NCOR2 C866", "log2 mean competition ratio": -0.114}, {"target": "NLRX1 C735 (UniProt Q86UT6)", "log2 mean competition ratio": -0.00328}, {"target": "NIBAN1 C516 (UniProt Q9BZQ8)", "log2 mean competition ratio": -0.32}, {"target": "NOS1AP C168 (UniProt O75052)", "log2 mean competition ratio": -0.27}, {"target": "NIFK C269 (UniProt Q9BYG3)", "log2 mean competition ratio": 0.0759}]}]}
